Data as given in PubChem BioAssay AID1259254 (NCATS, 2017)
Screen: 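Gene knock-downs that lead to re-replication, shown by excess G2 DNA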 (primary screen). Cells: human HCT116 colorectal cancer cells. Reagents: single siRNA against human genes. Time to read-out: 3 days. Measurement: 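Imaged Hoechst DNA stain sorts each cell into a cycle phase by DNA amount; per plate, G2 fraction set to 0% for non-targeting and 100% for GMNN siRNA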. Scale: G2 robust z-score and G2 cells, % of GMNN control: higher = more G2 cells, more excess DNA replication. Call rule: 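An siRNA counts as active if its G2 robust z-score lies at least 5 MADs above the screen median; here such calls match roughly 38% of GMNN control or more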.
The deposit covers about 59,000 reagents; below is a part drawn at random. Over the whole deposit, about 1,550 (2.6%) got an active call. 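G2 share is only a proxy for re-replication; each gene was hit by three separate siRNAs, and active genes were retested.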 Further read-outs or replicates are left out here. Not stated in the record: the amount of reagent.

target gene	PubChem SID	G2 robust z-score	G2 cells, % of GMNN control	Call
RBP3	SID160715748	0.926	9.49	inactive
RBP3	SID160715749	1.1	10.7	inactive
RBP3	SID160715750	3.08	24.7	inactive
PCLAF	SID160723034	-1.31	-6.28	inactive
PCLAF	SID160723035	-0.5	-0.549	inactive
PCLAF	SID160723036	7.18	53.5	active
CLK4	SID160745923	0.418	5.91	inactive
CLK4	SID160745924	0.942	9.59	inactive
CLK4	SID160745925	-0.0721	2.46	inactive
FAT1	SID160764021	0.462	6.22	inactive
FAT1	SID160764032	0.0882	3.59	inactive
FAT1	SID160764039	2.37	19.6	inactive
FOSB	SID160730863	-0.406	0.111	inactive
FOSB	SID160767100	1.63	14.4	inactive
FOSB	SID160767110	-0.887	-3.27	inactive
FAM32A	SID160732851	0.128	3.87	inactive
FAM32A	SID160737461	0.0566	3.37	inactive
FAM32A	SID160737462	-0.919	-3.5	inactive
ZMYM6	SID160721713	-0.305	0.822	inactive
ZMYM6	SID160721714	0.851	8.96	inactive
ZMYM6	SID160721715	-1.44	-7.19	inactive
RAET1G	SID160765140	3.02	24.2	inactive
RAET1G	SID160765141	-0.814	-2.76	inactive
RAET1G	SID160765142	0.752	8.26	inactive
DENND1B	SID160741859	-0.518	-0.678	inactive
DENND1B	SID160741861	-0.924	-3.53	inactive
DENND1B	SID160741862	-0.963	-3.81	inactive
DENND1B	SID160760049	0.497	6.46	inactive
DENND1B	SID160760051	-0.247	1.23	inactive
DENND1B	SID160760052	-0.459	-0.262	inactive
CEP131	SID160734673	3.39	26.8	inactive
CEP131	SID160734682	-0.479	-0.403	inactive
CEP131	SID160734693	0.323	5.24	inactive
ITGB4	SID160776006	-1.19	-5.42	inactive
ITGB4	SID160776007	0.459	6.2	inactive
ITGB4	SID160776008	-0.125	2.09	inactive
METTL18	SID160754261	0.313	5.17	inactive
METTL18	SID160754262	1.25	11.7	inactive
METTL18	SID160754263	3.46	27.3	inactive

Next part, starting with the last 6 of the part before.
target gene	PubChem SID	G2 robust z-score	G2 cells, % of GMNN control	Call
ITGB4	SID160776006	-1.19	-5.42	inactive
ITGB4	SID160776007	0.459	6.2	inactive
ITGB4	SID160776008	-0.125	2.09	inactive
METTL18	SID160754261	0.313	5.17	inactive
METTL18	SID160754262	1.25	11.7	inactive
METTL18	SID160754263	3.46	27.3	inactive
TMEM44	SID160754435	-0.42	0.013	inactive
TMEM44	SID160754436	0.871	9.1	inactive
TMEM44	SID160754437	-0.0362	2.71	inactive
SEC14L5	SID160722891	1.12	10.8	inactive
SEC14L5	SID160722892	-0.35	0.506	inactive
SEC14L5	SID160722894	-1.03	-4.27	inactive
FERMT3	SID160751339	-0.968	-3.85	inactive
FERMT3	SID160751340	-0.288	0.943	inactive
FERMT3	SID160751341	-0.0518	2.6	inactive
TAF1A	SID160721268	1.55	13.9	inactive
TAF1A	SID160721269	0.676	7.72	inactive
TAF1A	SID160721270	-0.197	1.58	inactive
OAS2	SID160778319	-0.25	1.21	inactive
OAS2	SID160778320	-0.91	-3.44	inactive
OAS2	SID160778321	0.391	5.72	inactive
GFRAL	SID160766195	-0.0557	2.58	inactive
GFRAL	SID160766196	-0.247	1.23	inactive
GFRAL	SID160766197	0.0764	3.5	inactive
UQCR10	SID160739178	-0.619	-1.39	inactive
UQCR10	SID160739179	2.39	19.8	inactive
UQCR10	SID160739180	1.73	15.1	inactive
ATP5PB	SID160721895	1.55	13.9	inactive
ATP5PB	SID160721914	-0.921	-3.51	inactive
ATP5PB	SID160731383	0.291	5.02	inactive
CUL3	SID160720072	3.57	28.1	inactive
CUL3	SID160720073	0.136	3.93	inactive
CUL3	SID160720075	1.44	13.1	inactive
NCOA2	SID160728589	-0.715	-2.07	inactive
NCOA2	SID160728590	-0.0478	2.63	inactive
NCOA2	SID160728591	-0.592	-1.2	inactive
AQP9	SID160719348	2.24	18.7	inactive
AQP9	SID160719358	0.477	6.32	inactive
AQP9	SID160731147	-0.949	-3.71	inactive
ESX1	SID160750475	-1.37	-6.68	inactive
ESX1	SID160750476	-1.17	-5.29	inactive
ESX1	SID160750477	-1.02	-4.21	inactive
NAA10	SID160719772	4.94	37.7	inactive
NAA10	SID160719773	7.39	55	active
NAA10	SID160719774	0.804	8.62	inactive
TARS1	SID160717712	-0.576	-1.08	inactive
TARS1	SID160717713	-0.28	1	inactive
TARS1	SID160717714	0.88	9.16	inactive
MCM10	SID160743665	4.19	32.4	inactive
MCM10	SID160743666	3.7	29	inactive
MCM10	SID160743667	1.54	13.8	inactive
EI24	SID160722454	-0.63	-1.47	inactive
EI24	SID160722455	-0.381	0.283	inactive
EI24	SID160722456	-0.533	-0.781	inactive
